# Experimental data from the supplement of paper PMC8728848.
# The other results are listed elsewhere or left out.
# How the values were obtained:
# Experiment in all cases: glycan array binding signal (z-score within array); higher = stronger binding
# Conditions in all cases: glycan notation: IUPAC condensed, linker removed
# Neu5Ac(a2-3)GalNAc = biological target: Neu5Ac(a2-3)GalNAc
# Procedure, shortened: (§1)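 Glycan array binding is given as a within-array Z-score, which can be read as non-binding when negative. The arrays, 3228 of them, came from the Consortium for Functional Glycomics database and were retained only where the protein sequence was available. Z-scores were averaged across arrays of the same protein sequence at different concentrations or buffers and across linkers.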
# [1] = biological target: Neu5Ac(a2-3)GalNAc(b1-4)GlcNAc
# Procedure, shortened: as §1
# [2] = biological target: Neu5Ac(a2-3)[GalNAc(b1-4)]Gal(b1-4)Glc
# Procedure, shortened: as §1
# [3] = biological target: Neu5Ac(a2-3)[GalNAc(b1-4)]Gal(b1-4)GlcNAc
# Procedure, shortened: as §1
# [4] = biological target: Neu5Ac(a2-3)[GalNAc(b1-4)]Gal(b1-4)GlcNAc(b1-3)GalNAc
# Procedure, shortened: as §1
# [5] = biological target: Neu5Ac(a2-3)[Neu5Ac(a2-6)]GalNAc
# Procedure, shortened: as §1
# Neu5Ac(a2-6)Gal = biological target: Neu5Ac(a2-6)Gal
# Procedure, shortened: as §1
# [6] = biological target: Neu5Ac(a2-6)Gal(b1-3)GlcNAc(b1-3)[Gal(b1-4)GlcNAc(b1-6)]Gal(b1-4)Glc
# Procedure, shortened: as §1
# Neu5Ac(a2-6)Gal(b1-4)Glc = biological target: Neu5Ac(a2-6)Gal(b1-4)Glc
# Procedure, shortened: as §1
# [7] = biological target: Neu5Ac(a2-6)Gal(b1-4)GlcNAc
# Procedure, shortened: as §1
# [8] = biological target: Neu5Ac(a2-6)Gal(b1-4)GlcNAc(b1-2)Man
# Procedure, shortened: as §1
# [9] = biological target: Neu5Ac(a2-6)Gal(b1-4)GlcNAc(b1-2)Man(a1-3)Man(b1-4)GlcNAc(b1-4)GlcNAc
# Procedure, shortened: as §1
# [10] = biological target: Neu5Ac(a2-6)Gal(b1-4)GlcNAc(b1-2)Man(a1-3)[Gal(b1-4)GlcNAc(b1-2)Man(a1-6)]Man(b1-4)GlcNAc(b1-4)GlcNAc
# Procedure, shortened: as §1
# [11] = biological target: Neu5Ac(a2-6)Gal(b1-4)GlcNAc(b1-2)Man(a1-3)[GlcNAc(b1-2)Man(a1-6)]Man(b1-4)GlcNAc(b1-4)GlcNAc
# Procedure, shortened: as §1
# [12] = biological target: Neu5Ac(a2-6)Gal(b1-4)GlcNAc(b1-2)Man(a1-3)[GlcNAc(b1-4)][Neu5Ac(a2-6)Gal(b1-4)GlcNAc(b1-2)Man(a1-6)]Man(b1-4)GlcNAc(b1-4)GlcNAc
# Procedure, shortened: as §1
# [13] = biological target: Neu5Ac(a2-6)Gal(b1-4)GlcNAc(b1-2)Man(a1-3)[Man(a1-6)]Man(b1-4)GlcNAc(b1-4)GlcNAc
# Procedure, shortened: as §1
# [14] = biological target: Neu5Ac(a2-6)Gal(b1-4)GlcNAc(b1-2)Man(a1-3)[Neu5Ac(a2-3)Gal(b1-4)GlcNAc(b1-2)Man(a1-6)]Man(b1-4)GlcNAc(b1-4)GlcNAc
# Procedure, shortened: as §1
# [15] = biological target: Neu5Ac(a2-6)Gal(b1-4)GlcNAc(b1-2)Man(a1-3)[Neu5Ac(a2-6)Gal(b1-4)GlcNAc(b1-2)Man(a1-6)]Man(b1-4)GlcNAc(b1-4)GlcNAc
# Procedure, shortened: as §1
# [16] = biological target: Neu5Ac(a2-6)Gal(b1-4)GlcNAc(b1-2)Man(a1-3)[Neu5Ac(a2-6)Gal(b1-4)GlcNAc(b1-2)Man(a1-6)]Man(b1-4)GlcNAc(b1-4)[Fuc(a1-6)]GlcNAc
# Procedure, shortened: as §1
# [17] = biological target: Neu5Ac(a2-6)Gal(b1-4)GlcNAc(b1-2)Man(a1-6)Man(b1-4)GlcNAc(b1-4)GlcNAc
# Procedure, shortened: as §1
# [18] = biological target: Neu5Ac(a2-6)Gal(b1-4)GlcNAc(b1-2)Man(a1-6)[Gal(b1-4)GlcNAc(b1-2)Man(a1-3)]Man(b1-4)GlcNAc(b1-4)GlcNAc
# Procedure, shortened: as §1
# [19] = biological target: Neu5Ac(a2-6)Gal(b1-4)GlcNAc(b1-2)Man(a1-6)[GlcNAc(b1-2)Man(a1-3)]Man(b1-4)GlcNAc(b1-4)GlcNAc
# Procedure, shortened: as §1
# [20] = biological target: Neu5Ac(a2-6)Gal(b1-4)GlcNAc(b1-2)Man(a1-6)[Man(a1-3)]Man(b1-4)GlcNAc(b1-4)GlcNAc
# Procedure, shortened: as §1
# [21] = biological target: Neu5Ac(a2-6)Gal(b1-4)GlcNAc(b1-2)[Neu5Ac(a2-6)Gal(b1-4)GlcNAc(b1-4)]Man(a1-3)[GlcNAc(b1-4)][Neu5Ac(a2-6)Gal(b1-4)GlcNAc(b1-2)[Neu5Ac(a2-6)Gal(b1-4)GlcNAc(b1-6)]Man(a1-6)]Man(b1-4)GlcNAc(b1-4)GlcNAc
# Procedure, shortened: as §1
# [22] = biological target: Neu5Ac(a2-6)Gal(b1-4)GlcNAc(b1-2)[Neu5Ac(a2-6)Gal(b1-4)GlcNAc(b1-4)]Man(a1-3)[GlcNAc(b1-4)][Neu5Ac(a2-6)Gal(b1-4)GlcNAc(b1-4)Man(a1-6)]Man(b1-4)GlcNAc(b1-4)GlcNAc
# Procedure, shortened: as §1
# [23] = biological target: Neu5Ac(a2-6)Gal(b1-4)GlcNAc(b1-2)[Neu5Ac(a2-6)Gal(b1-4)GlcNAc(b1-6)]Man(a1-6)[Neu5Ac(a2-6)Gal(b1-4)GlcNAc(b1-2)Man(a1-3)][GlcNAc(b1-4)]Man(b1-4)GlcNAc(b1-4)GlcNAc
# Procedure, shortened: as §1
# [24] = biological target: Neu5Ac(a2-6)Gal(b1-4)GlcNAc(b1-3)Gal(b1-3)GlcNAc
# Procedure, shortened: as §1
# [25] = biological target: Neu5Ac(a2-6)Gal(b1-4)GlcNAc(b1-3)Gal(b1-4)GlcNAc
# Procedure, shortened: as §1
# [26] = biological target: Neu5Ac(a2-6)Gal(b1-4)GlcNAc(b1-3)Gal(b1-4)GlcNAc(b1-2)Man(a1-3)[Neu5Ac(a2-6)Gal(b1-4)GlcNAc(b1-3)Gal(b1-4)GlcNAc(b1-2)Man(a1-6)]GalNAc
# Procedure, shortened: as §1
# [27] = biological target: Neu5Ac(a2-6)Gal(b1-4)GlcNAc(b1-3)Gal(b1-4)GlcNAc(b1-3)Gal(b1-4)GlcNAc
# Procedure, shortened: as §1
# [28] = biological target: Neu5Ac(a2-6)Gal(b1-4)GlcNAc(b1-3)Gal(b1-4)GlcNAc(b1-3)Gal(b1-4)GlcNAc(b1-2)Man(a1-3)[Neu5Ac(a2-6)Gal(b1-4)GlcNAc(b1-3)Gal(b1-4)GlcNAc(b1-3)Gal(b1-4)GlcNAc(b1-2)Man(a1-6)]GalNAc
# Procedure, shortened: as §1
# [29] = biological target: Neu5Ac(a2-6)Gal(b1-4)GlcNAc(b1-3)Gal(b1-4)GlcNAc(b1-3)GalNAc
# Procedure, shortened: as §1
# [30] = biological target: Neu5Ac(a2-6)Gal(b1-4)GlcNAc(b1-3)Gal(b1-4)GlcNAc(b1-3)[Neu5Ac(a2-6)Gal(b1-4)GlcNAc(b1-3)Gal(b1-4)GlcNAc(b1-6)]GalNAc
# Procedure, shortened: as §1
# [31] = biological target: Neu5Ac(a2-6)Gal(b1-4)GlcNAc(b1-3)Gal(b1-4)GlcNAc(b1-6)[Gal(b1-3)]GalNAc
# Procedure, shortened: as §1
# [32] = biological target: Neu5Ac(a2-6)Gal(b1-4)GlcNAc(b1-3)Gal(b1-4)[Fuc(a1-3)]GlcNAc(b1-3)Gal(b1-4)[Fuc(a1-3)]GlcNAc
# Procedure, shortened: as §1
# [33] = biological target: Neu5Ac(a2-6)Gal(b1-4)GlcNAc(b1-3)GalNAc
# Procedure, shortened: as §1
# [34] = biological target: Neu5Ac(a2-6)Gal(b1-4)GlcNAc(b1-3)[Neu5Ac(a2-6)Gal(b1-4)GlcNAc(b1-6)]GalNAc
# Procedure, shortened: as §1
binder,measurement,setting,value
"Protein L(B1-B4) (Finegoldia magna), Q51912 (protein) KEETPETPETDSEEEVTIKANLIFANGSTQTAEFKGTFEKATSEAYAYADTLKKDNGEYTVDVADKGYTLNIKFAGKEKTPEEPKEEVTIKANLIYADGKTQTAEFKGTFEEATAEAYRYADALKKDNGEYTVDVADKGYTLNIKFAGKEKTPEEPKEEVTIKANLIYADGKTQTAEFKGTFEEATAEAYRYADLLAKENGKYTVDVADKGYTLNIKFAGKEKTPEEPKEEVTIKANLIYADGKTQTAEFKGTFAEATAEAYRYADLLAKENGKYTADLEDGGYTINIRFAG",glycan array binding signal (z-score),Neu5Ac(a2-3)GalNAc,-1.04
same,glycan array binding signal (z-score),[1],-0.749
same,glycan array binding signal (z-score),[2],-0.457
same,glycan array binding signal (z-score),[3],-0.366
same,glycan array binding signal (z-score),[4],0.809
same,glycan array binding signal (z-score),[5],-0.993
same,glycan array binding signal (z-score),Neu5Ac(a2-6)Gal,0.04
same,glycan array binding signal (z-score),[6],0.889
same,glycan array binding signal (z-score),Neu5Ac(a2-6)Gal(b1-4)Glc,-0.077
same,glycan array binding signal (z-score),[7],-0.849
same,glycan array binding signal (z-score),[8],-0.335
same,glycan array binding signal (z-score),[9],-0.915
same,glycan array binding signal (z-score),[10],-0.52
same,glycan array binding signal (z-score),[11],-0.563
same,glycan array binding signal (z-score),[12],-0.792
same,glycan array binding signal (z-score),[13],-0.601
same,glycan array binding signal (z-score),[14],-0.866
same,glycan array binding signal (z-score),[15],-0.562
same,glycan array binding signal (z-score),[16],2.28
same,glycan array binding signal (z-score),[17],-0.493
same,glycan array binding signal (z-score),[18],-0.889
same,glycan array binding signal (z-score),[19],-0.623
same,glycan array binding signal (z-score),[20],-0.244
same,glycan array binding signal (z-score),[21],0.21
same,glycan array binding signal (z-score),[22],-0.109
same,glycan array binding signal (z-score),[23],-0.486
same,glycan array binding signal (z-score),[24],-0.883
same,glycan array binding signal (z-score),[25],-0.506
same,glycan array binding signal (z-score),[26],-0.472
same,glycan array binding signal (z-score),[27],-0.265
same,glycan array binding signal (z-score),[28],3.91
same,glycan array binding signal (z-score),[29],-0.256
same,glycan array binding signal (z-score),[30],2.86
same,glycan array binding signal (z-score),[31],0.095
same,glycan array binding signal (z-score),[32],1.49
same,glycan array binding signal (z-score),[33],0.664
same,glycan array binding signal (z-score),[34],0.586

# Three records drawn at random from the list so far:
binder,measurement,setting,value
"Protein L(B1-B4) (Finegoldia magna), Q51912 (protein) KEETPETPETDSEEEVTIKANLIFANGSTQTAEFKGTFEKATSEAYAYADTLKKDNGEYTVDVADKGYTLNIKFAGKEKTPEEPKEEVTIKANLIYADGKTQTAEFKGTFEEATAEAYRYADALKKDNGEYTVDVADKGYTLNIKFAGKEKTPEEPKEEVTIKANLIYADGKTQTAEFKGTFEEATAEAYRYADLLAKENGKYTVDVADKGYTLNIKFAGKEKTPEEPKEEVTIKANLIYADGKTQTAEFKGTFAEATAEAYRYADLLAKENGKYTADLEDGGYTINIRFAG",glycan array binding signal (z-score),[28],3.91
same,glycan array binding signal (z-score),[29],-0.256
same,glycan array binding signal (z-score),[9],-0.915
